Data as given in PubChem BioAssay AID504793 (Drosophila RNAi Screening Center, 2011)
Screen: 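Whole-genome screen for parts of the DNA damage checkpoint at G2/M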 (primary screen). System: Drosophila S2R+ cells. Reagent: long dsRNA against Drosophila genes, about 0.25 µg dsRNA per well. Duration: 4 days of dsRNA, then 4 hours of drug before read-out. Treatment: doxorubicin 0.5 µM for 4 hours to cause double-strand breaks, in cells also given a low, harmless dose of dsRNA against nbs to sensitise the assay. Measured: 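Per-well count of mitotic cells stained for phospho-histone H3 after doxorubicin exposure, used as mitotic index; counts are raw and not normalised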. Reading the numbers: mitotic cells: higher = more cells in mitosis, weaker G2 arrest. Rule for the call: 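Genes are called active only when high mitotic counts were reproduced with independent dsRNAs and mitosis was checked for delay without damage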. Calls: active = confirmed in follow-up tests; inactive = not confirmed.
The screen tested about 23,000 reagents; shown is a random part of those that have a named target and a result. In the full data, 62 (0.27%) got an active call. 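Calls come from follow-up tests whose scores are not deposited, so confirmed genes may have low counts here; counts are not normalised per plate.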 Raw values are not corrected between plates. Names joined by + are all predicted targets of the reagent.

| Gene | DRSC id | mitotic cells, replicate 1 | outcome |
| --- | --- | --- | --- |
| CG7465 | DRSC08592 | 8 | inactive |
| CG7465 | DRSC22320 | 10 | inactive |
| CG7465 | DRSC23943 | 5 | inactive |
| CG3651 | DRSC03730 | 7 | inactive |
| CG10799 | DRSC06002 | 8 | inactive |
| Ada (Adenosine deaminase) | DRSC14463 | 5 | inactive |
| nuf (nuclear fallout) | DRSC11379 | 4 | inactive |
| nuf (nuclear fallout) | DRSC23276 | 9 | inactive |
| nuf (nuclear fallout) | DRSC26784 | 7 | inactive |
| nuf (nuclear fallout) | DRSC29086 | 2 | inactive |
| CG14684 | DRSC14907 | 4 | inactive |
| mRpL45 (mitochondrial ribosomal protein L45) | DRSC16146 | 17 | inactive |
| pbl (pebble) | DRSC11381 | 8 | inactive |
| pbl (pebble) | DRSC26301 | 6 | inactive |
| OstDelta (Oligosaccharide transferase Delta subunit) | DRSC06980 | 6 | inactive |
| OstDelta (Oligosaccharide transferase Delta subunit) | DRSC27205 | 7 | inactive |
| CG5265 | DRSC15756 | 5 | inactive |
| sofe | DRSC19751 | 10 | inactive |
| Ir7d (Ionotropic receptor 7d) | DRSC18010 | 8 | inactive |
| Rx (Retinal Homeobox) | DRSC03837 | 4 | inactive |
| Rx (Retinal Homeobox) | DRSC04652 | 7 | inactive |
| Rx (Retinal Homeobox) | DRSC25248 | 6 | inactive |
| CG13063 | DRSC09946 | – | inactive |
| CG13063 | DRSC25466 | 7 | inactive |
| Vrp1 (Verprolin 1) | DRSC04148 | 7 | inactive |
| Vrp1 (Verprolin 1) | DRSC26671 | 4 | inactive |
| roq (roquin) | DRSC10227 | 7 | inactive |
| IP3K2 (Inositol 1,4,5-triphosphate kinase 2) | DRSC19500 | 6 | inactive |
| IP3K2 (Inositol 1,4,5-triphosphate kinase 2) | DRSC19747 | 6 | inactive |
| IP3K2 (Inositol 1,4,5-triphosphate kinase 2) | DRSC22614 | 9 | inactive |
| IP3K2 (Inositol 1,4,5-triphosphate kinase 2) | DRSC24796 | 10 | inactive |
| IP3K2 (Inositol 1,4,5-triphosphate kinase 2) | DRSC27191 | 11 | inactive |
| nudC | DRSC11096 | 8 | inactive |
| nudC | DRSC11097 | 4 | inactive |
| qtc (quick-to-court) | DRSC02364 | 12 | inactive |
| qtc (quick-to-court) | DRSC02365 | 4 | inactive |
| qtc (quick-to-court) | DRSC27377 | 3 | inactive |
| CG31845 (retired record) | DRSC23074 | 12 | inactive |
| Cht12 (Chitinase 12) | DRSC03844 | 4 | inactive |
| CG8777 | DRSC07263 | 11 | inactive |
| His2B:CG33894 + His2B:CG33872 + His2B:CG33902 + 20 more | DRSC21265 | 3 | inactive |
| sisA | DRSC20374 | 8 | inactive |
| sisA | DRSC29331 | 9 | inactive |
| Zn72D (Zinc-finger protein at 72D) | DRSC11318 | 4 | inactive |
| AstA (Allatostatin A) | DRSC14634 | 11 | inactive |
| fos28F (retired record) | DRSC03391 | 14 | inactive |
| mod(mdg4) + pre-mod(mdg4)-U | DRSC13476 | 11 | inactive |
| Ubc2 (Ubiquitin conjugating enzyme 2) | DRSC01137 | 6 | inactive |
| Ubc2 (Ubiquitin conjugating enzyme 2) | DRSC03468 | 4 | inactive |
| Ubc2 (Ubiquitin conjugating enzyme 2) | DRSC29062 | 3 | inactive |
| scramb2 (scramblase 2) | DRSC08543 | 6 | inactive |
| scramb2 (scramblase 2) | DRSC26609 | 9 | inactive |
| Lst8 | DRSC18262 | 6 | inactive |
| CG30010 | DRSC05193 | 10 | inactive |
| CG5504 | DRSC04701 | 6 | inactive |
| CG14282 | DRSC14763 | 12 | inactive |
| CG14282 | DRSC26234 | 3 | inactive |
| Gr28a (Gustatory receptor 28a) | DRSC02290 | 2 | inactive |
| scrt (scratch) | DRSC23001 | 18 | inactive |
| scrt (scratch) | DRSC25792 | 4 | inactive |
| fkh (fork head) | DRSC16949 | 10 | inactive |
| fkh (fork head) | DRSC28213 | 3 | inactive |
| CG31917 + Tfb5 | DRSC02362 | 9 | inactive |
| CG31917 + Tfb5 | DRSC02363 | 5 | inactive |
| CG3191 | DRSC18530 | 10 | inactive |
| CG3191 | DRSC29390 | 3 | inactive |
| CG4701 | DRSC01952 | 6 | inactive |
| CG15564 | DRSC15102 | 9 | inactive |
| hng2 (hinge2) | DRSC16412 | 1 | inactive |
| Atg14 (Autophagy-related 14) | DRSC14421 | 4 | inactive |
| Atg14 (Autophagy-related 14) | DRSC27166 | 6 | inactive |
| Uba4 (Ubiquitin-like activating enzyme 4) | DRSC02194 | 6 | inactive |
| Uba4 (Ubiquitin-like activating enzyme 4) | DRSC27964 | 11 | inactive |
| CG17768 + LSm-4 | DRSC02845 | 7 | inactive |
| Elo68beta (Elongase 68beta) | DRSC09860 | 8 | inactive |
| CR18275 + CR18166 + CG32817 | DRSC17249 | 9 | inactive |
| CG4301 | DRSC19886 | 5 | inactive |
| Mlh1 | DRSC07473 | 6 | inactive |
| L (retired record) | DRSC05966 | 6 | inactive |
| L (retired record) | DRSC25281 | 3 | inactive |
| BBS9 (Bardet-Biedl syndrome 9) | DRSC04257 | 2 | inactive |
| BBS9 (Bardet-Biedl syndrome 9) | DRSC27789 | 4 | inactive |
| up (upheld) | DRSC20382 | 9 | inactive |
| up (upheld) | DRSC28798 | 2 | inactive |
| Unc-115a (Uncoordinated 115a) | DRSC12749 | 2 | inactive |
| Unc-115a (Uncoordinated 115a) | DRSC24907 | 6 | inactive |
| Arl8 (ADP ribosylation factor-like 8) | DRSC16334 | 2 | inactive |
| CG32302 | DRSC08340 | 4 | inactive |
| CG4935 | DRSC01924 | 3 | inactive |
| CG14488 | DRSC06460 | 6 | inactive |
| CG18810 | DRSC02701 | 3 | inactive |
| ND-24 (NADH dehydrogenase (ubiquinone) 24 kDa subunit) | DRSC19960 | 4 | inactive |
| Strump (Strumpellin) | DRSC09872 | 4 | inactive |
| CG10650 | DRSC02085 | 3 | inactive |
| CG7271 | DRSC22561 | 12 | inactive |
| CG13989 | DRSC02321 | 4 | inactive |
| CG5254 | DRSC18611 | 17 | inactive |
| CG5938 | DRSC15923 | 8 | inactive |
| CG5938 | DRSC24038 | 14 | inactive |
| Cpr72Eb (Cuticular protein 72Eb) | DRSC09870 | 5 | inactive |
| CG43999 | DRSC14605 | 7 | inactive |
| CG5886 | DRSC15908 | 6 | inactive |
| pinta | DRSC14698 | 8 | inactive |
| CG4270 | DRSC00648 | 7 | inactive |
| Orco (Odorant receptor co-receptor) | DRSC12358 | 6 | inactive |
| Orco (Odorant receptor co-receptor) | DRSC27061 | 7 | inactive |
| Src42A (Src oncogene at 42A) | DRSC04915 | 6 | inactive |
| Src42A (Src oncogene at 42A) | DRSC36641 | 10 | inactive |
| Vha68-1 (Vacuolar H[+] ATPase 68kD subunit 1) | DRSC03470 | 9 | inactive |
| CG8236 | DRSC16399 | 4 | inactive |
| CG8236 | DRSC26321 | 2 | inactive |

Quoted from the listing for reference:
| Gene | DRSC id | mitotic cells, replicate 1 | outcome |
| --- | --- | --- | --- |
| OstDelta (Oligosaccharide transferase Delta subunit) | DRSC06980 | 6 | inactive |
| OstDelta (Oligosaccharide transferase Delta subunit) | DRSC27205 | 7 | inactive |
| CG5265 | DRSC15756 | 5 | inactive |
| sofe | DRSC19751 | 10 | inactive |
| Ir7d (Ionotropic receptor 7d) | DRSC18010 | 8 | inactive |
| Rx (Retinal Homeobox) | DRSC03837 | 4 | inactive |
| Rx (Retinal Homeobox) | DRSC04652 | 7 | inactive |
| Rx (Retinal Homeobox) | DRSC25248 | 6 | inactive |
| CG13063 | DRSC09946 | – | inactive |
| CG13063 | DRSC25466 | 7 | inactive |
| Vrp1 (Verprolin 1) | DRSC04148 | 7 | inactive |
| Vrp1 (Verprolin 1) | DRSC26671 | 4 | inactive |
| roq (roquin) | DRSC10227 | 7 | inactive |
| IP3K2 (Inositol 1,4,5-triphosphate kinase 2) | DRSC19500 | 6 | inactive |
| IP3K2 (Inositol 1,4,5-triphosphate kinase 2) | DRSC19747 | 6 | inactive |
| IP3K2 (Inositol 1,4,5-triphosphate kinase 2) | DRSC22614 | 9 | inactive |
| IP3K2 (Inositol 1,4,5-triphosphate kinase 2) | DRSC24796 | 10 | inactive |
